These are yes or no findings as the source states them, for the method shown.
Biological target: T1, human cathepsin G (human) (UniProt P08311)
T1 sequence: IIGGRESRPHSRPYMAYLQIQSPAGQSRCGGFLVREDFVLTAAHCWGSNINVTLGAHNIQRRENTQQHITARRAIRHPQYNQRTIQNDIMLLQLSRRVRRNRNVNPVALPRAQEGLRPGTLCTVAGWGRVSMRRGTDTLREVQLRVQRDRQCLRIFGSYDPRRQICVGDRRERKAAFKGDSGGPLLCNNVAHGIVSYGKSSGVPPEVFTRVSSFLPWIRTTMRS
Assay: enzyme inhibition screen (fluorogenic substrate); 300 nM inhibitor incubated with each protease for 15 min at 37 °C before the fluorogenic substrate was added; buffer and substrate for each protease as in Table 4; in triplicate; both purified

## recombinant Fasciola hepatica Kunitz-type protease inhibitor FhKT1
  binding: no binding (tested: 300 nM)

From PMC5016662
